Reference: the supplement of paper PMC8728848
The list shows a part of the results.

Key:
Experiment in all cases: glycan array binding signal (z-score within array); higher = stronger binding
Conditions in all cases: glycan notation: IUPAC condensed, linker removed
[1] = target: Gal(b1-3)GlcNAc(b1-3)Gal(b1-4)GlcNAc(b1-2)Man(a1-3)[Gal(b1-3)GlcNAc(b1-3)Gal(b1-4)GlcNAc(b1-2)Man(a1-6)]Man(b1-4)GlcNAc(b1-4)GlcNAc
Procedure, shortened: (§1)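 Negative Z-scores can be read as non-binding. The Z-score is calculated within each array and then averaged across arrays of one protein sequence at different concentrations or buffers and across linkers. Arrays, 3228 in all, were curated from the Consortium for Functional Glycomics database and kept only where the protein sequence was available.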

[2] = target: Gal(b1-3)GlcNAc(b1-3)Gal(b1-4)GlcNAc(b1-2)[Gal(b1-3)GlcNAc(b1-3)Gal(b1-4)GlcNAc(b1-6)]Man(a1-6)[Gal(b1-3)GlcNAc(b1-3)Gal(b1-4)GlcNAc(b1-2)Man(a1-3)]Man(b1-4)GlcNAc(b1-4)[Fuc(a1-6)]GlcNAc
Procedure, shortened: as §1

[3] = target: Gal(b1-3)GlcNAc(b1-3)Gal(b1-4)GlcNAc(b1-3)Gal(b1-4)GlcNAc(b1-2)[Gal(b1-3)GlcNAc(b1-3)Gal(b1-4)GlcNAc(b1-3)Gal(b1-4)GlcNAc(b1-6)]Man(a1-6)[Gal(b1-3)GlcNAc(b1-3)Gal(b1-4)GlcNAc(b1-3)Gal(b1-4)GlcNAc(b1-2)Man(a1-3)]Man(b1-4)GlcNAc(b1-4)[Fuc(a1-6)]GlcNAc
Procedure, shortened: as §1

[4] = target: Gal(b1-3)GlcNAc(b1-3)Gal(b1-4)GlcNAc(b1-6)[Gal(b1-3)GlcNAc(b1-3)]Gal(b1-4)Glc
Procedure, shortened: as §1

[5] = target: Gal(b1-3)GlcNAc(b1-3)Gal(b1-4)[Fuc(a1-3)]GlcNAc
Procedure, shortened: as §1

[6] = target: Gal(b1-3)GlcNAc(b1-3)Gal(b1-4)[Fuc(a1-3)]GlcNAc(b1-6)[Gal(b1-3)GlcNAc(b1-3)]Gal(b1-4)Glc
Procedure, shortened: as §1

[7] = target: Gal(b1-3)GlcNAc(b1-3)GalNAc
Procedure, shortened: as §1

[8] = target: Gal(b1-3)GlcNAc(b1-6)Gal(b1-4)GlcNAc
Procedure, shortened: as §1

[9] = target: Gal(b1-3)GlcNAc(b1-6)GalNAc
Procedure, shortened: as §1

[10] = target: Gal(b1-3)GlcNAc(b1-6)[Gal(b1-3)]GalNAc
Procedure, shortened: as §1

Gal(b1-3)GlcNAc6S = target: Gal(b1-3)GlcNAc6S
Procedure, shortened: as §1

[11] = target: Gal(b1-3)[Fuc(a1-4)]GlcNAc
Procedure, shortened: as §1

[12] = target: Gal(b1-3)[Fuc(a1-4)]GlcNAc(b1-2)Man
Procedure, shortened: as §1

[13] = target: Gal(b1-3)[Fuc(a1-4)]GlcNAc(b1-2)Man(a1-3)[Gal(b1-3)[Fuc(a1-4)]GlcNAc(b1-2)Man(a1-6)]Man(b1-4)GlcNAc(b1-4)[Fuc(a1-6)]GlcNAc
Procedure, shortened: as §1

[14] = target: Gal(b1-3)[Fuc(a1-4)]GlcNAc(b1-3)Gal(b1-3)[Fuc(a1-4)]GlcNAc
Procedure, shortened: as §1

[15] = target: Gal(b1-3)[Fuc(a1-4)]GlcNAc(b1-3)Gal(b1-4)[Fuc(a1-3)]GlcNAc
Procedure, shortened: as §1

[16] = target: Gal(b1-3)[Fuc(a1-4)]GlcNAc(b1-6)GalNAc
Procedure, shortened: as §1

[17] = target: Gal(b1-3)[GlcNAc(b1-6)]GalNAc
Procedure, shortened: as §1

[18] = target: Gal(b1-3)[Neu5Ac(a2-6)]GalNAc
Procedure, shortened: as §1

[19] = target: Gal(b1-3)[Neu5Ac(a2-6)]GlcNAc(b1-4)Gal(b1-4)Glc
Procedure, shortened: as §1

[20] = target: Gal(b1-3)[Neu5Ac(b2-6)]GalNAc
Procedure, shortened: as §1

Gal(b1-4)Gal = target: Gal(b1-4)Gal
Procedure, shortened: as §1

[21] = target: Gal(b1-4)GalNAc(a1-3)[Fuc(a1-2)]Gal(b1-4)GlcNAc
Procedure, shortened: as §1

[22] = target: Gal(b1-4)GalNAc(b1-3)[Fuc(a1-2)]Gal(b1-4)GlcNAc
Procedure, shortened: as §1

Gal(b1-4)Glc = target: Gal(b1-4)Glc
Procedure, shortened: as §1

Gal(b1-4)Glc6S = target: Gal(b1-4)Glc6S
Procedure, shortened: as §1

Gal(b1-4)GlcNAc = target: Gal(b1-4)GlcNAc
Procedure, shortened: as §1

[23] = target: Gal(b1-4)GlcNAc(a1-6)Gal(b1-4)GlcNAc
Procedure, shortened: as §1

Gal(b1-4)GlcNAc(b1-2)Man = target: Gal(b1-4)GlcNAc(b1-2)Man
Procedure, shortened: as §1

[24] = target: Gal(b1-4)GlcNAc(b1-2)Man(a1-3)Man(b1-4)GlcNAc(b1-4)GlcNAc
Procedure, shortened: as §1

[25] = target: Gal(b1-4)GlcNAc(b1-2)Man(a1-3)[Gal(b1-4)GlcNAc(b1-2)Man(a1-6)]Man(b1-4)GlcNAc(b1-4)GlcNAc
Procedure, shortened: as §1

[26] = target: Gal(b1-4)GlcNAc(b1-2)Man(a1-3)[Gal(b1-4)GlcNAc(b1-2)Man(a1-6)]Man(b1-4)GlcNAc(b1-4)[Fuc(a1-6)]GlcNAc
Procedure, shortened: as §1

[27] = target: Gal(b1-4)GlcNAc(b1-2)Man(a1-3)[Gal(b1-4)GlcNAc(b1-2)Man(a1-6)][Gal(b1-4)GlcNAc(b1-4)]Man(b1-4)GlcNAc(b1-4)[Fuc(a1-6)]GlcNAc
Procedure, shortened: as §1

[28] = target: Gal(b1-4)GlcNAc(b1-2)Man(a1-3)[Gal(b1-4)GlcNAc(b1-2)Man(a1-6)][GlcNAc(b1-4)]Man(b1-4)GlcNAc(b1-4)[Fuc(a1-6)]GlcNAc
Procedure, shortened: as §1

[29] = target: Gal(b1-4)GlcNAc(b1-2)Man(a1-3)[GlcNAc(b1-2)Man(a1-6)]Man(b1-4)GlcNAc(b1-4)GlcNAc
Procedure, shortened: as §1

[30] = target: Gal(b1-4)GlcNAc(b1-2)Man(a1-3)[GlcNAc(b1-4)][Gal(b1-4)GlcNAc(b1-2)Man(a1-6)]Man(b1-4)GlcNAc(b1-4)GlcNAc
Procedure, shortened: as §1

[31] = target: Gal(b1-4)GlcNAc(b1-2)Man(a1-3)[Man(a1-6)]Man(b1-4)GlcNAc(b1-4)GlcNAc
Procedure, shortened: as §1

[32] = target: Gal(b1-4)GlcNAc(b1-2)Man(a1-6)Man(b1-4)GlcNAc(b1-4)GlcNAc
Procedure, shortened: as §1

B1: Epa8 (Candida glabrata) (protein)
chain: MGSSHHHHHHSSGLVPRGSHMASSRALSDYPLGCSPLLGTKLTPGLSMELYEYPLDNHGIGPHCWDPAYLNPEYPRTGFESHKLIGTAQNVMSLNFEHRTQDCHVEFSNLPASFNFPDQITLTNFTMLLYGYFKPKESGRYRFHMEADDLLLMNLGAGNAFDCCAHEATRNNLGDYIAYDIWAGTRKDVEVFLEKEVFYPLRLFFNNRDGRAALDFSYYLNGATEPGTDIPELLFSLPDGESCPAYI
glycan array binding signal (z-score) [1]: -0.145 | glycan array binding signal (z-score) [2]: 2.13 | glycan array binding signal (z-score) [3]: 0.884 | glycan array binding signal (z-score) [4]: 0.383 | glycan array binding signal (z-score) [5]: -0.548 | glycan array binding signal (z-score) [6]: -0.376 | glycan array binding signal (z-score) [7]: -0.605 | glycan array binding signal (z-score) [8]: -0.506 | glycan array binding signal (z-score) [9]: 1.12 | glycan array binding signal (z-score) [10]: -0.007 | glycan array binding signal (z-score) (Gal(b1-3)GlcNAc6S): -0.269 | glycan array binding signal (z-score) [11]: -0.37 | glycan array binding signal (z-score) [12]: 0.558 | glycan array binding signal (z-score) [13]: -0.222 | glycan array binding signal (z-score) [14]: -0.532 | glycan array binding signal (z-score) [15]: -0.26 | glycan array binding signal (z-score) [16]: 2.52 | glycan array binding signal (z-score) [17]: -0.362 | glycan array binding signal (z-score) [18]: -0.016 | glycan array binding signal (z-score) [19]: -0.392 | glycan array binding signal (z-score) [20]: 0.899 | glycan array binding signal (z-score) (Gal(b1-4)Gal): -0.214 | glycan array binding signal (z-score) [21]: -0.994 | glycan array binding signal (z-score) [22]: -0.537 | glycan array binding signal (z-score) (Gal(b1-4)Glc): -1.15 | glycan array binding signal (z-score) (Gal(b1-4)Glc6S): 0.19 | glycan array binding signal (z-score) (Gal(b1-4)GlcNAc): -0.292 | glycan array binding signal (z-score) [23]: -0.076 | glycan array binding signal (z-score) (Gal(b1-4)GlcNAc(b1-2)Man): 0.284 | glycan array binding signal (z-score) [24]: -0.289 | glycan array binding signal (z-score) [25]: -0.175 | glycan array binding signal (z-score) [26]: 0.15 | glycan array binding signal (z-score) [27]: -1.75 | glycan array binding signal (z-score) [28]: -0.729 | glycan array binding signal (z-score) [29]: -0.13 | glycan array binding signal (z-score) [30]: -1.47 | glycan array binding signal (z-score) [31]: 1.16 | glycan array binding signal (z-score) [32]: -0.287
